Laboratory results from patent US10785980B2, “Substituted oxadiazoles for combating phytopathogenic fungi” (BASF SE, priority 2016, dated 2020).
Some entries share one result that the patent states for a list of compounds.

Columns and labels:
Assay type in all cases: in vivo
[1] = test system: Phakopsora pachyrhizi; assay: Curative control of soy bean rust on soy beans (glass house trial); settings: soy bean seedlings, 32 ppm sprayed after inoculation (curative), assessed after 14 days; untreated plants 90%
[2] = test system: Puccinia recondita; assay: Preventative control of brown rust on wheat (glass house trial); settings: wheat seedlings, 63 ppm sprayed seven days before inoculation (preventative); untreated plants 80%
[3] = test system: Phakopsora pachyrhizi; assay: Protective control of soy bean rust on soy beans (glass house trial); settings: soy bean seedlings, 32 ppm sprayed 2 days before inoculation (protective), assessed after fourteen days; untreated plants 90%
[4] = test system: Puccinia recondita; assay: Curative control of brown rust on wheat (glass house trial); settings: wheat seedlings, 63 ppm sprayed after inoculation (curative), assessed after 8 days; untreated plants 90%

Structure (SMILES) | diseased leaf area [1] | diseased leaf area [2] | diseased leaf area [3] | diseased leaf area [4]
CN(Cc1ccccc1)C(=S)c1ccc(-c2noc(C(F)(F)F)n2)cc1 [Ex-1] | at most 15% | at most 15% | at most 15% | at most 15%
CN(C(=S)c1ccc(-c2noc(C(F)(F)F)n2)cc1)C1CC1 [Ex-2] | at most 15% |  | at most 15% | at most 15%
FC(F)(F)c1nc(-c2ccc(C(=S)NC3CC3)cc2)no1 [Ex-3] | at most 15% | at most 15% | at most 15% | at most 15%
CNC(=S)c1ccc(-c2noc(C(F)(F)F)n2)cc1 [Ex-4] | at most 15% | at most 15% | at most 15% | at most 15%
FC(F)(F)c1nc(-c2ccc(C(=S)NCc3ccccc3)cc2)no1 [Ex-5] | at most 15% |  | at most 15% | 
CN(C(=S)c1ccc(-c2noc(C(F)(F)F)n2)cc1)c1ccccc1 [Ex-6] |  |  | at most 15% | 
CN(C)C(=S)c1ccc(-c2noc(C(F)(F)F)n2)cc1 [Ex-7, N,N-dimethyl-4-[5-(trifluoromethyl)-1,2,4-oxadiazol-3-yl]benzenecarbothioamide] | at most 15% |  | at most 15% | 
Fc1ccc(NC(=S)c2ccc(-c3noc(C(F)(F)F)n3)cc2)c(Cl)c1 [Ex-8] | at most 15% | at most 15% | at most 15% | 
CN(Cc1ccccc1F)C(=S)c1ccc(-c2noc(C(F)(F)F)n2)cc1 [Ex-9] | at most 15% | at most 15% | at most 15% | at most 15%
Fc1ccc(CNC(=S)c2ccc(-c3noc(C(F)(F)F)n3)cc2)cc1 [Ex-10] |  | at most 15% | at most 15% | at most 15%
Fc1ccccc1NC(=S)c1ccc(-c2noc(C(F)(F)F)n2)cc1 [Ex-11] | at most 15% |  | at most 15% | 
Fc1ccc(NC(=S)c2ccc(-c3noc(C(F)(F)F)n3)cc2)cc1 [Ex-12] | at most 15% | at most 15% | at most 15% | 
Cc1ccccc1NC(=S)c1ccc(-c2noc(C(F)(F)F)n2)cc1 [Ex-13] | at most 15% | at most 15% | at most 15% | 
Cc1ccc(NC(=S)c2ccc(-c3noc(C(F)(F)F)n3)cc2)cc1 [Ex-14] |  |  | at most 15% | 
Fc1ccc(NC(=S)c2ccc(-c3noc(C(F)(F)F)n3)cc2)c(F)c1 [Ex-15] | at most 15% |  | at most 15% | 
FC(F)(F)c1nc(-c2ccc(C(=S)Nc3ccccc3)cc2)no1 [Ex-16] | at most 15% | at most 15% | at most 15% | 
CCNC(=S)c1ccc(-c2noc(C(F)(F)F)n2)cc1 [Ex-17] | at most 15% | at most 15% | at most 15% | at most 15%
FC(F)(F)c1nc(-c2ccc(C(=S)NCC3CC3)cc2)no1 [Ex-18] | at most 15% | at most 15% | at most 15% | at most 15%
CC(C)NC(=S)c1ccc(-c2noc(C(F)(F)F)n2)cc1 [Ex-19] | at most 15% | at most 15% | at most 15% | at most 15%

Structure (SMILES) | diseased leaf area [1] | diseased leaf area [2] | diseased leaf area [3] | diseased leaf area [4]
CC(C)N(C)C(=S)c1ccc(-c2noc(C(F)(F)F)n2)cc1 [Ex-20] | at most 15% |  | at most 15% | 
CCN(C)C(=S)c1ccc(-c2noc(C(F)(F)F)n2)cc1 [Ex-21] | at most 15% |  | at most 15% | at most 15%
CN(C(=S)c1ccc(-c2noc(C(F)(F)F)n2)cc1)c1ccc(F)cc1 [Ex-23] |  |  | at most 15% | 
Cc1ccc(N(C)C(=S)c2ccc(-c3noc(C(F)(F)F)n3)cc2)cc1 [Ex-25] |  |  | at most 15% | 
CN(Cc1ccc(F)cc1)C(=S)c1ccc(-c2noc(C(F)(F)F)n2)cc1 [Ex-27] |  |  | at most 15% | 
CN(CC#N)C(=S)c1ccc(-c2noc(C(F)(F)F)n2)cc1 [Ex-28] | at most 15% | at most 15% | at most 15% | at most 15%
CN(CC1CC1)C(=S)c1ccc(-c2noc(C(F)(F)F)n2)cc1 [Ex-29] |  |  |  | at most 15%
Cc1cc(F)ccc1NC(=S)c1ccc(-c2noc(C(F)(F)F)n2)cc1 [Ex-30] |  |  | at most 15% | 
FC(F)(F)c1nc(-c2ccc(C(=S)Nc3ccccc3Cl)cc2)no1 [Ex-32] | at most 15% |  | at most 15% | 
Cc1ccc(NC(=S)c2ccc(-c3noc(C(F)(F)F)n3)cc2)c(F)c1 [Ex-34] |  |  | at most 15% | 
Cc1ccc(N(C)C(=S)c2ccc(-c3noc(C(F)(F)F)n3)cc2)c(F)c1 [Ex-35] |  |  | at most 15% | 
FC(F)(F)c1nc(-c2ccc(C(=S)Nc3ccc(Cl)cc3)cc2)no1 [Ex-36] |  |  | at most 15% | 
CC(C)(C)NC(=S)c1ccc(-c2noc(C(F)(F)F)n2)cc1 [Ex-39] | at most 15% |  | at most 15% | 
Fc1cc(Cl)ccc1NC(=S)c1ccc(-c2noc(C(F)(F)F)n2)cc1 [Ex-40] |  |  | at most 15% | 
FC(F)(F)c1nc(-c2ccc(C(=S)NC3CC3(F)F)cc2)no1 (stereo not shown) [Ex-42] |  |  | at most 15% | 
CCC1CC1NC(=S)c1ccc(-c2noc(C(F)(F)F)n2)cc1 (stereo not shown) [Ex-43] | at most 15% | at most 15% | at most 15% | at most 15%
CC1CC1NC(=S)c1ccc(-c2noc(C(F)(F)F)n2)cc1 (stereo not shown) [Ex-44] | at most 15% | at most 15% | at most 15% | at most 15%
CC1(NC(=S)c2ccc(-c3noc(C(F)(F)F)n3)cc2)CC1 [Ex-45] | at most 15% | at most 15% | at most 15% | at most 15%
